Data as given in publication PMC4303145.
Results are given in words; binding and its absence hold for the method and conditions named. Binding seen in cells or lysates may run through a third protein. Blank lines part the entries; values can stand above or below the binder they belong to.

Protein sequences, listed by entry. Tags and fused reporters are not part of them.
UniProt Q8TED9: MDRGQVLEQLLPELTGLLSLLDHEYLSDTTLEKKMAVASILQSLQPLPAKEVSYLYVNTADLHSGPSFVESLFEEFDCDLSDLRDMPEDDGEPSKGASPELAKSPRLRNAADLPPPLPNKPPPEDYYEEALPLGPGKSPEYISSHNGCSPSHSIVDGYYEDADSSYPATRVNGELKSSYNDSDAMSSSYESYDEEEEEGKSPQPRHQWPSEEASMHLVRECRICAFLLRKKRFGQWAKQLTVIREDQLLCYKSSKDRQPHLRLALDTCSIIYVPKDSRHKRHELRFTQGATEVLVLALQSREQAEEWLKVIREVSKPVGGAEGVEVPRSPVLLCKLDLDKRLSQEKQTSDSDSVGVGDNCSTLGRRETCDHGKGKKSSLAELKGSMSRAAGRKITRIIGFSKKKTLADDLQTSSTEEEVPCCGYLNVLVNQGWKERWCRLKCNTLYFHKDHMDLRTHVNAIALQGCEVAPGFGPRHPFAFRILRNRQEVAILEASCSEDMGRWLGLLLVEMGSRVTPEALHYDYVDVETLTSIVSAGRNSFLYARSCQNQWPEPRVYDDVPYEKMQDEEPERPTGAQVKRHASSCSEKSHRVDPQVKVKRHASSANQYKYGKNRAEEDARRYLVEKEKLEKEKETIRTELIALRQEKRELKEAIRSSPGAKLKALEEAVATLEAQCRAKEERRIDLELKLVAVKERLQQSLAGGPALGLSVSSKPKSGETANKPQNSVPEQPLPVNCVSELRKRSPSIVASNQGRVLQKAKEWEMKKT

Experiments:
[1] = biological target: endogenous AFAP1L1 (human (endogenous in LoVo)) (UniProt Q8TED9); assay: co-IP; LoVo whole cell lysates, endogenous proteins; immunoprecipitated with the anti-AFAP1L1 Ab, immunoblotted with Abs against vinculin or other invadopodia or focal adhesion proteins
[2] = biological target: endogenous AFAP1L1 (human (endogenous in LoVo)), Q8TED9; assay: as above; settings: remark: other sources report otherwise

- binding [1]: no binding
B1: endogenous p130Cas (protein, UniProt P56945 1-870)
chain: MNHLNVLAKALYDNVAESPDELSFRKGDIMTVLEQDTQGLDGWWLCSLHGRQGIVPGNRLKILVGMYDKKPAGPGPGPPATPAQPQPGLHAPAPPASQYTPMLPNTYQPQPDSVYLVPTPSKAQQGLYQVPGPSPQFQSPPAKQTSTFSKQTPHHPFPSPATDLYQVPPGPGGPAQDIYQVPPSAGMGHDIYQVPPSMDTRSWEGTKPPAKVVVPTRVGQGYVYEAAQPEQDEYDIPRHLLAPGPQDIYDVPPVRGLLPSQYGQEVYDTPPMAVKGPNGRDPLLEVYDVPPSVEKGLPPSNHHAVYDVPPSVSKDVPDGPLLREETYDVPPAFAKAKPFDPARTPLVLAAPPPDSPPAEDVYDVPPPAPDLYDVPPGLRRPGPGTLYDVPRERVLPPEVADGGVVDSGVYAVPPPAEREAPAEGKRLSASSTGSTRSSQSASSLEVAGPGREPLELEVAVEALARLQQGVSATVAHLLDLAGSAGATGSWRSPSEPQEPLVQDLQAAVAAVQSAVHELLEFARSAVGNAAHTSDRALHAKLSRQLQKMEDVHQTLVAHGQALDAGRGGSGATLEDLDRLVACSRAVPEDAKQLASFLHGNASLLFRRTKATAPGPEGGGTLHPNPTDKTSSIQSRPLPSPPKFTSQDSPDGQYENSEGGWMEDYDYVHLQGKEEFEKTQKELLEKGSITRQGKSQLELQQLKQFERLEQEVSRPIDHDLANWTPAQPLAPGRTGGLGPSDRQLLLFYLEQCEANLTTLTNAVDAFFTAVATNQPPKIFVAHSKFVILSAHKLVFIGDTLSRQAKAADVRSQVTHYSNLLCDLLRGIVATTKAAALQYPSPSAAQDMVERVKELGHSTQQFRRVLGQLAAA

- binding [1]: no binding
B2: endogenous Tks5 (protein, UniProt Q5TCZ1 1-1133)
chain: MLAYCVQDATVVDVEKRRNPSKHYVYIINVTWSDSTSQTIYRRYSKFFDLQMQLLDKFPIEGGQKDPKQRIIPFLPGKILFRRSHIRDVAVKRLKPIDEYCRALVRLPPHISQCDEVFRFFEARPEDVNPPKEDYGSSKRKSVWLSSWAESPKKDVTGADATAEPMILEQYVVVSNYKKQENSELSLQAGEVVDVIEKNESGWWFVSTSEEQGWVPATYLEAQNGTRDDSDINTSKTGEVSKRRKAHLRRLDRRWTLGGMVNRQHSREEKYVTVQPYTSQSKDEIGFEKGVTVEVIRKNLEGWWYIRYLGKEGWAPASYLKKAKDDLPTRKKNLAGPVEIIGNIMEISNLLNKKASGDKETPPAEGEGHEAPIAKKEISLPILCNASNGSAVGVPDRTVSRLAQGSPAVARIAPQRAQISSPNLRTRPPPRRESSLGFQLPKPPEPPSVEVEYYTIAEFQSCISDGISFRGGQKAEVIDKNSGGWWYVQIGEKEGWAPASYIDKRKKPNLSRRTSTLTRPKVPPPAPPSKPKEAEEGPTGASESQDSPRKLKYEEPEYDIPAFGFDSEPELSEEPVEDRASGERRPAQPHRPSPASSLQRARFKVGESSEDVALEEETIYENEGFRPYAEDTLSARGSSGDSDSPGSSSLSLTRKNSPKSGSPKSSSLLKLKAEKNAQAEMGKNHSSASFSSSITINTTCCSSSSSSSSSLSKTSGDLKPRSASDAGIRGTPKVRAKKDADANAGLTSCPRAKPSVRPKPFLNRAESQSQEKMDISTLRRQLRPTGQLRGGLKGSKSEDSELPPQTASEAPSEGSRRSSSDLITLPATTPPCPTKKEWEGPATSYMTCSAYQKVQDSEISFPAGVEVQVLEKQESGWWYVRFGELEGWAPSHYLVLDENEQPDPSGKELDTVPAKGRQNEGKSDSLEKIERRVQALNTVNQSKKATPPIPSKPPGGFGKTSGTPAVKMRNGVRQVAVRPQSVFVSPPPKDNNLSCALRRNESLTATDGLRGVRRNSSFSTARSAAAEAKGRLAERAASQGSDSPLLPAQRNSIPVSPVRPKPIEKSQFIHNNLKDVYVSIADYEGDEETAGFQEGVSMEVLERNPNGWWYCQILDGVKPFKGWVPSNYLEKKN

- binding [2]: no binding
B3: endogenous cortactin, Q14247 1-550 (protein)
chain: MWKASAGHAVSIAQDDAGADDWETDPDFVNDVSEKEQRWGAKTVQGSGHQEHINIHKLRENVFQEHQTLKEKELETGPKASHGYGGKFGVEQDRMDKSAVGHEYQSKLSKHCSQVDSVRGFGGKFGVQMDRVDQSAVGFEYQGKTEKHASQKDYSSGFGGKYGVQADRVDKSAVGFDYQGKTEKHESQRDYSKGFGGKYGIDKDKVDKSAVGFEYQGKTEKHESQKDYVKGFGGKFGVQTDRQDKCALGWDHQEKLQLHESQKDYKTGFGGKFGVQSERQDSAAVGFDYKEKLAKHESQQDYSKGFGGKYGVQKDRMDKNASTFEDVTQVSSAYQKTVPVEAVTSKTSNIRANFENLAKEKEQEDRRKAEAERAQRMAKERQEQEEARRKLEEQARAKTQTPPVSPAPQPTEERLPSSPVYEDAASFKAELSYRGPVSGTEPEPVYSMEAADYREASSQQGLAYATEAVYESAEAPGHYPAEDSTYDEYENDLGITAVALYDYQAAGDDEISFDPDDIITNIEMIDDGWWRGVCKGRYGLFPANYVELRQ
